Results deposited as PubChem BioAssay AID504808 (Drosophila RNAi Screening Center, 2011)
Aim: 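Genes whose loss lifts activity of an E2F-responsive reporter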 (primary screen). Cell system: Drosophila S2 cells. Reagent: long dsRNA against Drosophila genes. Read-out: 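Firefly luciferase driven by E2F sites, normalised to Renilla luciferase on the same minimal promoter, measured by plate reader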. Direction: E2F firefly: higher = more E2F reporter activity; Renilla normaliser: higher = more normaliser reporter signal. Call rule: 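Called active if the normalised E2F reporter went up by over 50%; the cutoff is arbitrary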.
In all, the deposit lists about 21,000 reagents; shown is an unselected part of those that have a named target and a result. Over the whole deposit, 18 (0.084%) got an active call. 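Raw counts without plate normalisation, one of two replicates; the ratio scores behind the calls were not deposited.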 Reagents against one gene are numbered here. Not given: the amount of reagent, the time to read-out.

For ScsbetaA (Succinyl-coenzyme A synthetase beta subunit, ADP-forming), what does the deposit list?
E2F firefly, rep 1: 77712; Renilla normaliser, rep 1: 3241; activity call: inactive

What did the screen give for CG9500?
E2F firefly, rep 1: 1.73e5; Renilla normaliser, rep 1: 5411; activity call: inactive

What did the screen give for IntS3 (Integrator 3)?
E2F firefly, rep 1: 1.46e5; Renilla normaliser, rep 1: 6643; activity call: inactive

For Dop1R1 (Dopamine 1-like receptor 1) #1, what does the deposit list?
E2F firefly, rep 1: 88775; Renilla normaliser, rep 1: 2590; activity call: inactive

For Dop1R1 (Dopamine 1-like receptor 1) #2, how do the results read?
E2F firefly, rep 1: 1.28e5; Renilla normaliser, rep 1: 4540; activity call: inactive

What did the screen give for CG1504?
E2F firefly, rep 1: 1.34e5; Renilla normaliser, rep 1: 6069; activity call: inactive

What is on record for BthD (BthD selenoprotein)?
E2F firefly, rep 1: 70471; Renilla normaliser, rep 1: 4357; activity call: inactive

What did the screen give for Prosalpha4T1 (Proteasome alpha4 subunit, Testis-specific 1)?
E2F firefly, rep 1: 1.17e5; Renilla normaliser, rep 1: 7455; activity call: inactive

For Cpr47Ec (Cuticular protein 47Ec), how do the results read?
E2F firefly, rep 1: 1.01e5; Renilla normaliser, rep 1: 4151; activity call: inactive

With mamo (maternal gene required for meiosis), how do the results read?
E2F firefly, rep 1: 1.23e5; Renilla normaliser, rep 1: 15622; activity call: inactive

With CG7099, how do the results read?
E2F firefly, rep 1: 81433; Renilla normaliser, rep 1: 3367; activity call: inactive

For CG9973 (retired record), what does the deposit list?
E2F firefly, rep 1: 90933; Renilla normaliser, rep 1: 3963; activity call: inactive

What did the screen give for tutl (turtle) #1?
E2F firefly, rep 1: 1.43e5; Renilla normaliser, rep 1: 4981; activity call: inactive

With tutl (turtle) #2, what was measured?
E2F firefly, rep 1: 1.45e5; Renilla normaliser, rep 1: 4932; activity call: inactive

With tutl (turtle) #3, how do the results read?
E2F firefly, rep 1: 1.27e5; Renilla normaliser, rep 1: 4991; activity call: inactive

For caup (caupolican), how do the results read?
E2F firefly, rep 1: 1.03e5; Renilla normaliser, rep 1: 5365; activity call: inactive

What did the screen give for nop5?
E2F firefly, rep 1: 1.66e5; Renilla normaliser, rep 1: 5198; activity call: inactive

What did the screen give for Synj (Synaptojanin)?
E2F firefly, rep 1: 77085; Renilla normaliser, rep 1: 3730; activity call: inactive

With CG7886, what does the deposit list?
E2F firefly, rep 1: 1.06e5; Renilla normaliser, rep 1: 5943; activity call: inactive

For CG4829, what does the deposit list?
E2F firefly, rep 1: 1.59e5; Renilla normaliser, rep 1: 6204; activity call: inactive

For eIF2A (eukaryotic translation initiation factor 2A), how do the results read?
E2F firefly, rep 1: 73258; Renilla normaliser, rep 1: 3445; activity call: inactive

For Mur11Da (Mucin related 11Da), how do the results read?
E2F firefly, rep 1: 89296; Renilla normaliser, rep 1: 2208; activity call: inactive

Reprinted from the entries so far, 3 entries:
tutl (turtle) #1: E2F firefly, rep 1 = 1.43e5; Renilla normaliser, rep 1 = 4981; activity call = inactive
tutl (turtle) #2: E2F firefly, rep 1 = 1.45e5; Renilla normaliser, rep 1 = 4932; activity call = inactive
tutl (turtle) #3: E2F firefly, rep 1 = 1.27e5; Renilla normaliser, rep 1 = 4991; activity call = inactive

The results go on.
With CG9286, what does the deposit list?
E2F firefly, rep 1: 69811; Renilla normaliser, rep 1: 3584; activity call: inactive

Which result is listed for RapGAP1 (Rap GTPase activating protein 1) #1?
E2F firefly, rep 1: 1.51e5; Renilla normaliser, rep 1: 4948; activity call: inactive

Which result is listed for RapGAP1 (Rap GTPase activating protein 1) #2?
E2F firefly, rep 1: 1.62e5; Renilla normaliser, rep 1: 5843; activity call: inactive

What is on record for RapGAP1 (Rap GTPase activating protein 1) #3?
E2F firefly, rep 1: 79999; Renilla normaliser, rep 1: 3529; activity call: inactive

For Mur89F (Mucin related 89F), what does the deposit list?
E2F firefly, rep 1: 1.05e5; Renilla normaliser, rep 1: 6224; activity call: inactive

Which result is listed for Ptpmeg2 (Protein tyrosine phosphatase Meg2) #1?
E2F firefly, rep 1: 1.30e5; Renilla normaliser, rep 1: 5682; activity call: inactive

With Ptpmeg2 (Protein tyrosine phosphatase Meg2) #2, how do the results read?
E2F firefly, rep 1: 1.24e5; Renilla normaliser, rep 1: 5921; activity call: inactive

Which result is listed for Ykt6 (YKT6 v-SNARE)?
E2F firefly, rep 1: 7080; Renilla normaliser, rep 1: 796; activity call: inactive

Which result is listed for COX7C (Cytochrome c oxidase subunit 7C)?
E2F firefly, rep 1: 70570; Renilla normaliser, rep 1: 3757; activity call: inactive

Which result is listed for tzn (tenzing norgay)?
E2F firefly, rep 1: 68445; Renilla normaliser, rep 1: 2730; activity call: inactive

With srp (serpent) #1, how do the results read?
E2F firefly, rep 1: 87496; Renilla normaliser, rep 1: 2631; activity call: inactive

What did the screen give for srp (serpent) #2?
E2F firefly, rep 1: 70528; Renilla normaliser, rep 1: 4935; activity call: inactive

Which result is listed for CG13066?
E2F firefly, rep 1: 1.69e5; Renilla normaliser, rep 1: 8355; activity call: inactive

What did the screen give for velo (veloren) #1?
E2F firefly, rep 1: 60747; Renilla normaliser, rep 1: 2749; activity call: inactive

Which result is listed for velo (veloren) #2?
E2F firefly, rep 1: 62428; Renilla normaliser, rep 1: 3860; activity call: inactive
